Data as given in PubChem BioAssay AID1259405 (NCATS, 2018)

Purpose: 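Silenced genes that increase secreted GFP made by CHO cells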 (primary screen)
System: Chinese hamster CHO-K1 ovary cells with stable secreted eGFP expression
Knock-down reagent: single siRNA against mouse genes, 0.8 pmol siRNA per well (2 µl of 400 nM stock)
Time to read-out: 3 days
Detection: 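Per-well intracellular GFP measured by laser scanning cytometry, plus viability from ATP luminescence, each relative to plate median of non-targeting control wells, in %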
Reading the numbers: GFP, % of control: higher = more GFP per well, higher productivity; viability (ATP), % of control: higher = more viable cells (more ATP)
Rule for the call: 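a knock-down is called active if GFP reaches 120% or more of non-targeting control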
Shown is an unselected part of about 50,000 reagents. About 4,000 of them (8%) count as active. 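Mouse siRNA library applied to hamster cells; one well for each siRNA.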 The numbers tell different reagents against one gene apart.

gene symbol	siRNA no.	GFP, % of control	viability (ATP), % of control	outcome
Nudt16l2 (nudix hydrolase 16 like 2)	1	80.3	56.1	inactive
Nudt16l2 (nudix hydrolase 16 like 2)	2	71.8	86.8	inactive
Nudt16l2 (nudix hydrolase 16 like 2)	3	81.3	71.5	inactive
Atl2 (atlastin GTPase 2)	1	61.6	58.2	inactive
Atl2 (atlastin GTPase 2)	2	51.6	65.2	inactive
Atl2 (atlastin GTPase 2)	3	53.9	40.6	inactive
Or52h2 (olfactory receptor family 52 subfamily H member 2)	1	157	83.1	active
Or52h2 (olfactory receptor family 52 subfamily H member 2)	2	71.1	73.1	inactive
Or52h2 (olfactory receptor family 52 subfamily H member 2)	3	27.4	61.8	inactive
Wipi2 (WD repeat domain, phosphoinositide interacting 2)	1	63.6	46.4	inactive
Wipi2 (WD repeat domain, phosphoinositide interacting 2)	2	117	56.9	inactive
Wipi2 (WD repeat domain, phosphoinositide interacting 2)	3	80.3	58.7	inactive
Zbtb6 (zinc finger and BTB domain containing 6)	1	69.4	56.5	inactive
Zbtb6 (zinc finger and BTB domain containing 6)	2	96.6	86.7	inactive
Zbtb6 (zinc finger and BTB domain containing 6)	3	97.4	87.7	inactive
Ceacam10 (CEA cell adhesion molecule 10)	1	54.6	59.6	inactive
Ceacam10 (CEA cell adhesion molecule 10)	2	64.5	72.5	inactive
Ceacam10 (CEA cell adhesion molecule 10)	3	115	112	inactive
Gtf3c1 (general transcription factor III C 1)	1	87.7	80.6	inactive
Gtf3c1 (general transcription factor III C 1)	2	89.7	89.5	inactive
Gtf3c1 (general transcription factor III C 1)	3	90	64.9	inactive
Jrk (JRK helix-turn-helix protein)	1	70.1	93	inactive
Jrk (JRK helix-turn-helix protein)	2	79.1	85.9	inactive
Jrk (JRK helix-turn-helix protein)	3	55.6	86	inactive
Ppp1r2-ps9	1	78.8	79.5	inactive
Ppp1r2-ps9	2	87.5	84.8	inactive
Ppp1r2-ps9	3	70.9	86.5	inactive
Man2a2 (mannosidase 2, alpha 2)	1	94.1	84.4	inactive
Man2a2 (mannosidase 2, alpha 2)	2	96.4	111	inactive
Man2a2 (mannosidase 2, alpha 2)	3	117	118	inactive
Hecw1	1	57.3	67.4	inactive
Hecw1	2	51.8	59.2	inactive
Hecw1	3	115	152	inactive
Bpifa5 (BPI fold containing family A, member 5)	1	131	107	active
Bpifa5 (BPI fold containing family A, member 5)	2	96.7	72.2	inactive
Bpifa5 (BPI fold containing family A, member 5)	3	102	96.2	inactive
Naa80 (N(alpha)-acetyltransferase 80, NatH catalytic subunit)	1	74.6	56.4	inactive
Naa80 (N(alpha)-acetyltransferase 80, NatH catalytic subunit)	2	98	96.8	inactive
Naa80 (N(alpha)-acetyltransferase 80, NatH catalytic subunit)	3	76.3	81.6	inactive
Fsaf1 (40S small subunit processome assembly factor 1)	1	94.6	78.8	inactive
Fsaf1 (40S small subunit processome assembly factor 1)	2	105	104	inactive
Fsaf1 (40S small subunit processome assembly factor 1)	3	94.4	72.6	inactive
Mthfd2	1	88.1	106	inactive
Mthfd2	2	97	81.8	inactive
Mthfd2	3	49.2	76.6	inactive
Rell1 (RELT-like 1)	1	65.4	35.1	inactive
Rell1 (RELT-like 1)	2	34.5	25	inactive
Rell1 (RELT-like 1)	3	75.2	96.8	inactive
Zfp524 (zinc finger protein 524)	1	74.5	57.3	inactive
Zfp524 (zinc finger protein 524)	2	61.7	64	inactive
Zfp524 (zinc finger protein 524)	3	110	88	inactive
Hbb-bh1 (hemoglobin Z, beta-like embryonic chain)	1	116	128	inactive
Hbb-bh1 (hemoglobin Z, beta-like embryonic chain)	2	136	114	active
Hbb-bh1 (hemoglobin Z, beta-like embryonic chain)	3	70.7	45.4	inactive
Irf3 (interferon regulatory factor 3)	1	74.8	71.7	inactive
Irf3 (interferon regulatory factor 3)	2	83.6	64	inactive
Irf3 (interferon regulatory factor 3)	3	97.8	106	inactive
Usp50 (ubiquitin specific peptidase 50)	1	67.3	91.1	inactive
Usp50 (ubiquitin specific peptidase 50)	2	72.6	70.2	inactive
Usp50 (ubiquitin specific peptidase 50)	3	57.8	68	inactive
Zfp764 (zinc finger protein 764)	1	108	88.2	inactive
Zfp764 (zinc finger protein 764)	2	87.3	68	inactive
Zfp764 (zinc finger protein 764)	3	114	113	inactive
Wdr48 (WD repeat domain 48)	1	50.2	58.9	inactive
Wdr48 (WD repeat domain 48)	2	76	69.6	inactive
Wdr48 (WD repeat domain 48)	3	43	68.1	inactive
Nmbr (neuromedin B receptor)	1	73.3	56.6	inactive
Nmbr (neuromedin B receptor)	2	113	79.4	inactive
Nmbr (neuromedin B receptor)	3	66.2	83.5	inactive
Fancg (Fanconi anemia, complementation group G)	1	120	111	active
Fancg (Fanconi anemia, complementation group G)	2	146	110	active
Fancg (Fanconi anemia, complementation group G)	3	87.7	67.3	inactive
Or2f1 (olfactory receptor family 2 subfamily F member 1)	1	50.5	48.7	inactive
Or2f1 (olfactory receptor family 2 subfamily F member 1)	2	80.2	75.3	inactive
Or2f1 (olfactory receptor family 2 subfamily F member 1)	3	0	1.37	inactive
Mesp1 (mesoderm posterior 1)	1	181	67.2	active
Mesp1 (mesoderm posterior 1)	2	83.5	82.5	inactive
Mesp1 (mesoderm posterior 1)	3	96.3	46.3	inactive
Rab8a (RAB8A, member RAS oncogene family)	1	80.4	105	inactive
Rab8a (RAB8A, member RAS oncogene family)	2	73.7	43.5	inactive
Rab8a (RAB8A, member RAS oncogene family)	3	47.2	65.7	inactive
Nadsyn1 (NAD synthetase 1)	1	48.6	51.7	inactive
Nadsyn1 (NAD synthetase 1)	2	93.1	69.4	inactive
Nadsyn1 (NAD synthetase 1)	3	95.2	127	inactive
Unc13d (unc-13 homolog D)	1	116	52.1	inactive
Unc13d (unc-13 homolog D)	2	74.9	39.1	inactive
Unc13d (unc-13 homolog D)	3	102	93	inactive
Dhx34 (DExH-box helicase 34)	1	62.1	64.5	inactive
Dhx34 (DExH-box helicase 34)	2	83.3	72.9	inactive
Dhx34 (DExH-box helicase 34)	3	72.5	62.9	inactive
Dbx1 (developing brain homeobox 1)	1	89.3	111	inactive
Dbx1 (developing brain homeobox 1)	2	72.5	74.3	inactive
Dbx1 (developing brain homeobox 1)	3	89.3	71.6	inactive
Slc25a45	1	118	110	inactive
Slc25a45	2	59.5	59.6	inactive
Slc25a45	3	72.4	70.6	inactive
Or4c113 (olfactory receptor family 4 subfamily C member 113)	1	68.3	80.3	inactive
Or4c113 (olfactory receptor family 4 subfamily C member 113)	2	58.9	49.6	inactive
Or4c113 (olfactory receptor family 4 subfamily C member 113)	3	59.5	93.7	inactive
Or1o4 (olfactory receptor family 1 subfamily O member 4)	1	57.1	81.3	inactive
Or1o4 (olfactory receptor family 1 subfamily O member 4)	2	83.6	85.9	inactive
Or1o4 (olfactory receptor family 1 subfamily O member 4)	3	74.5	47.1	inactive
Frem2 (Fras1 related extracellular matrix protein 2)	1	83.1	71.3	inactive
Frem2 (Fras1 related extracellular matrix protein 2)	2	82.8	50.2	inactive
Frem2 (Fras1 related extracellular matrix protein 2)	3	36.1	56	inactive
Cxcl3 (C-X-C motif chemokine ligand 3)	1	42.6	56.8	inactive
Cxcl3 (C-X-C motif chemokine ligand 3)	2	55.5	39.6	inactive
Cxcl3 (C-X-C motif chemokine ligand 3)	3	34.5	37.9	inactive

15 of these entries, reformatted.
gene symbol | siRNA no. | GFP, % of control | viability (ATP), % of control | outcome
Wipi2 (WD repeat domain, phosphoinositide interacting 2) | 2 | 117 | 56.9 | inactive
Wipi2 (WD repeat domain, phosphoinositide interacting 2) | 3 | 80.3 | 58.7 | inactive
Zbtb6 (zinc finger and BTB domain containing 6) | 1 | 69.4 | 56.5 | inactive
Zbtb6 (zinc finger and BTB domain containing 6) | 2 | 96.6 | 86.7 | inactive
Zbtb6 (zinc finger and BTB domain containing 6) | 3 | 97.4 | 87.7 | inactive
Ceacam10 (CEA cell adhesion molecule 10) | 1 | 54.6 | 59.6 | inactive
Ceacam10 (CEA cell adhesion molecule 10) | 2 | 64.5 | 72.5 | inactive
Ceacam10 (CEA cell adhesion molecule 10) | 3 | 115 | 112 | inactive
Gtf3c1 (general transcription factor III C 1) | 1 | 87.7 | 80.6 | inactive
Gtf3c1 (general transcription factor III C 1) | 2 | 89.7 | 89.5 | inactive
Gtf3c1 (general transcription factor III C 1) | 3 | 90 | 64.9 | inactive
Jrk (JRK helix-turn-helix protein) | 1 | 70.1 | 93 | inactive
Jrk (JRK helix-turn-helix protein) | 2 | 79.1 | 85.9 | inactive
Jrk (JRK helix-turn-helix protein) | 3 | 55.6 | 86 | inactive
Ppp1r2-ps9 | 1 | 78.8 | 79.5 | inactive
